The values below come from PMC9584821.

This assay has as its target T1, hexokinase 1 (HK1) (UniProt P19367).
T1 sequence: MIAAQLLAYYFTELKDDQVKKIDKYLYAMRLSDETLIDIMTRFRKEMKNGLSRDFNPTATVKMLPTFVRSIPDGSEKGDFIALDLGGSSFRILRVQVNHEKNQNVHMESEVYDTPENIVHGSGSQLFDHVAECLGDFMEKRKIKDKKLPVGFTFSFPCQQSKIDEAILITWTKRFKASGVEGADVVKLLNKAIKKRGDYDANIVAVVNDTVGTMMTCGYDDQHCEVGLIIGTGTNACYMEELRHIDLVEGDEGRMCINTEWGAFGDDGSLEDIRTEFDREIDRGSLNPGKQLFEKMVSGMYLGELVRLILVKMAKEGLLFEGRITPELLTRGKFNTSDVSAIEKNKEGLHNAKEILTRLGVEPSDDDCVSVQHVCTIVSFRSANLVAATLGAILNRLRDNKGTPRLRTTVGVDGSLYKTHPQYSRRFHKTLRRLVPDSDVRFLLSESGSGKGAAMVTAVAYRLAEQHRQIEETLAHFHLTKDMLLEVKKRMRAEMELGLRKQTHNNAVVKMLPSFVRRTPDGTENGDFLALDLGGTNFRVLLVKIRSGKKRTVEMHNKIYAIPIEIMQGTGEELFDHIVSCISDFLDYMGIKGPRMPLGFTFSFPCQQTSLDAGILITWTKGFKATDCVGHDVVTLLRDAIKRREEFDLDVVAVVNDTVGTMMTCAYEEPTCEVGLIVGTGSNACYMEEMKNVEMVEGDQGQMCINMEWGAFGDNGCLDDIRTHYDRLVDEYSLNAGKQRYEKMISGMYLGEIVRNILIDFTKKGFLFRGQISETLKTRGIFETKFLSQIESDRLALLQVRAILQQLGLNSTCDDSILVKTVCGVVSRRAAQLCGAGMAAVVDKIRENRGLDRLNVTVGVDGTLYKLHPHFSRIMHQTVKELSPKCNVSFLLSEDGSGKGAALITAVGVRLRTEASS
The experiment in a line: co-IP; cell lysates (50 mM Tris-HCl pH 7.6, 150 mM NaCl, 100 mM NaF, 0.5% Nonidet P-40) with antibody and protein G-Sepharose, 4 °C, 3 h, western blot; cells with or without TGF-β (2 ng/ml) or PDNPA (10 μM).

No constants are given. Whether binding was seen depends on the method and setting. In cells and extracts the contact can be indirect. Some binding calls cover weakened binding; strength is not graded here.

B1: depalmitoylase ABHD17B (enzyme, UniProt Q5VST6 1-288)
chain: MNNLSFSELCCLFCCPPCPGKIASKLAFLPPDPTYTLMCDESGSRWTLHLSERADWQYSSREKDAIECFMTRTSKGNRIACMFVRCSPNAKYTLLFSHGNAVDLGQMSSFYIGLGSRINCNIFSYDYSGYGASSGKPTEKNLYADIEAAWLALRTRYGIRPENVIIYGQSIGTVPSVDLAARYESAAVILHSPLTSGMRVAFPDTKKTYCFDAFPNIDKISKITSPVLIIHGTEDEVIDFSHGLALFERCQRPVEPLWVEGAGHNDVELYGQYLERLKQFVSQELVNL
In the case of B1, the binding result is listed as “binds”.
